According to the supplement of paper PMC12819154, “High-throughput peptide-centric local stability assay extends protein–ligand identification to membrane proteins, tissues and bacteria” (Nature Structural & Molecular Biology, 2025):
The list shows a part of the results. Most entries show no effect beyond the scatter of the controls.

Amino acid sequences for entries named in this document (tags omitted). A change or cut given only in a name is not applied to a line headed by its entry.
UniProt Q9D6W8: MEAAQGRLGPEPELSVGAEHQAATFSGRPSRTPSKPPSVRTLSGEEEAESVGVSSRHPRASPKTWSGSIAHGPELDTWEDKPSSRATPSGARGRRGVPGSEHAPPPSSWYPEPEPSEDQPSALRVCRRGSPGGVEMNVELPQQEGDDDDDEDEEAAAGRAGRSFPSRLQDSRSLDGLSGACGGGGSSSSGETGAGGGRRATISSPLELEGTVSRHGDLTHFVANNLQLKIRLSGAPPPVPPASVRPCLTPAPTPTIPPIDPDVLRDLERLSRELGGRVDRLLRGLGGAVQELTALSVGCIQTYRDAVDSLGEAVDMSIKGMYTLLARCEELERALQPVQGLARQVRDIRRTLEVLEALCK
UniProt Q9D1E6: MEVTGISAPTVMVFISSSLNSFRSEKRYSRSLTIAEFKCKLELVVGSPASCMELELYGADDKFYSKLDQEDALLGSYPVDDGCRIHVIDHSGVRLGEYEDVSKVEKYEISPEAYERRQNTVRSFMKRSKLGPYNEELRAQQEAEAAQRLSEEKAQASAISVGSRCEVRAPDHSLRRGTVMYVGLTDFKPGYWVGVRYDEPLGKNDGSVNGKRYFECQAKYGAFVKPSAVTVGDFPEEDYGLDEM
UniProt Q9DBT9: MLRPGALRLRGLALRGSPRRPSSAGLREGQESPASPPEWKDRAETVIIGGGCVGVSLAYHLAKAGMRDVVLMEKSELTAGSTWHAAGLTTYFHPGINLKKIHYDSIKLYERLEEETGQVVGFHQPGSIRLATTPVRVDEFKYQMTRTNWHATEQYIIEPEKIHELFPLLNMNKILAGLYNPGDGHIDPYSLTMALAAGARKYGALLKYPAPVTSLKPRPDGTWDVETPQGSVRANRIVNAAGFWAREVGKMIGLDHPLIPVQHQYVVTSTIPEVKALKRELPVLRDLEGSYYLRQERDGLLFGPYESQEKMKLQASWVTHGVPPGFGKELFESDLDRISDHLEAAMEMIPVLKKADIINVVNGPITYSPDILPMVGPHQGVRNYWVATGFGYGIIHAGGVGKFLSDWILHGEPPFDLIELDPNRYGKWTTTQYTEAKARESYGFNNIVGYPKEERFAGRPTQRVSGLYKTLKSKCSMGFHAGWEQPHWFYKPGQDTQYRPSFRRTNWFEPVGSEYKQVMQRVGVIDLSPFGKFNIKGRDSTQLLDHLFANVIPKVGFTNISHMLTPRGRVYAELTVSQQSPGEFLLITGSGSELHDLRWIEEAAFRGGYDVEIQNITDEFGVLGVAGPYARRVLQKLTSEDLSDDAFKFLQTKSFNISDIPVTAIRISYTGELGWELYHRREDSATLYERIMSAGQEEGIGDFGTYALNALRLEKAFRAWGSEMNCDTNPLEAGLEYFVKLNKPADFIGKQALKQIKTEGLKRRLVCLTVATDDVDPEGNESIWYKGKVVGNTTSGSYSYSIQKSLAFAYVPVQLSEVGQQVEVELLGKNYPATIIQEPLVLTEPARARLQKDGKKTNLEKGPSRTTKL
UniProt Q9D0M3: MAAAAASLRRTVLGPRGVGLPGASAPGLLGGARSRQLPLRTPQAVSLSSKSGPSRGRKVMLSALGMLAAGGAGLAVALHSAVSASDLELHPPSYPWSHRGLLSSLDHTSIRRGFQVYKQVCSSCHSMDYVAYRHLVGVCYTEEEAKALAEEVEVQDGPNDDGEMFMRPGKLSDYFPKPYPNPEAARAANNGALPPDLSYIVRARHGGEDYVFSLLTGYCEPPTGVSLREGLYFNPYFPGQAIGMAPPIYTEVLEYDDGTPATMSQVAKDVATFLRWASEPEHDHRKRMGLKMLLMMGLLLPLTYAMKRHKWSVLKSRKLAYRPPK
UniProt Q9D824: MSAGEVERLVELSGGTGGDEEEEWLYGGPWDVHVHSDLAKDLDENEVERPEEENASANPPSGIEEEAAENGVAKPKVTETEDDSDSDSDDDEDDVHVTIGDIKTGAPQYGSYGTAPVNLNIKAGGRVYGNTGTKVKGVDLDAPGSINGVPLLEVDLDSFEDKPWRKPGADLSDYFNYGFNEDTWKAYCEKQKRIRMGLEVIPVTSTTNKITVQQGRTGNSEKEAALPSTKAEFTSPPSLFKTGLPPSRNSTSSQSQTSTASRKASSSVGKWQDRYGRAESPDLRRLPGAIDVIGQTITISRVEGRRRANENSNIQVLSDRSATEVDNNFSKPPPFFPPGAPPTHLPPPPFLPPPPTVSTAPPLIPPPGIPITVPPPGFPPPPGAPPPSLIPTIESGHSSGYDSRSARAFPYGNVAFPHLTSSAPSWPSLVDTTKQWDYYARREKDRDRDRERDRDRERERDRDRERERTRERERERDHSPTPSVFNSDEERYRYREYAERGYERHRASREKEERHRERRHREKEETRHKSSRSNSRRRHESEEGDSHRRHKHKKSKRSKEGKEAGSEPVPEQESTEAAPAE
UniProt Q9D0R2: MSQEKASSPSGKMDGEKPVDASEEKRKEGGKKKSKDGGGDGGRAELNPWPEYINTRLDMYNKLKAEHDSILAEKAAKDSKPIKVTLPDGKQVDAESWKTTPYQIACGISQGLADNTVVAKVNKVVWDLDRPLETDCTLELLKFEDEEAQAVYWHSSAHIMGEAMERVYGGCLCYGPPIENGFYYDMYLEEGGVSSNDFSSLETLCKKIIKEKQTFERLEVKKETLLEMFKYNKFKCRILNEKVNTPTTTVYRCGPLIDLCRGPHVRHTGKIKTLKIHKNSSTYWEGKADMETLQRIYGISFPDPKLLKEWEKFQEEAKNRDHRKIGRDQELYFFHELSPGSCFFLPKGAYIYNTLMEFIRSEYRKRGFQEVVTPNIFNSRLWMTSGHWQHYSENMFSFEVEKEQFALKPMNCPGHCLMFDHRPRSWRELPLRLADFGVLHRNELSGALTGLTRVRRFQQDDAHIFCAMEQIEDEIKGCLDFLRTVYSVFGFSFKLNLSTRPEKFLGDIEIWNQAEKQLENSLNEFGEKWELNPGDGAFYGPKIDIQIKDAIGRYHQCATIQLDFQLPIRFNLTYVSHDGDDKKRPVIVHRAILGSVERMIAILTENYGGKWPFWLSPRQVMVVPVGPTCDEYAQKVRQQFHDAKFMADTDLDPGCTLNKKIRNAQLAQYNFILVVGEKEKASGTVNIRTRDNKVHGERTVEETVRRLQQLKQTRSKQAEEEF
UniProt Q9DAU1: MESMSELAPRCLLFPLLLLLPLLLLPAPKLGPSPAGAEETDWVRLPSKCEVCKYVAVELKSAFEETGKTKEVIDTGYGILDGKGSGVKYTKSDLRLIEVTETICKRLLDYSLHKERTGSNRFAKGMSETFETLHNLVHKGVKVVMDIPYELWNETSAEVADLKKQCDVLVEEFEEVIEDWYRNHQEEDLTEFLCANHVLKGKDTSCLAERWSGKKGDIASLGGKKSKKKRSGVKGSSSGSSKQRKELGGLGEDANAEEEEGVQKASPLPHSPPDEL
UniProt Q9D820: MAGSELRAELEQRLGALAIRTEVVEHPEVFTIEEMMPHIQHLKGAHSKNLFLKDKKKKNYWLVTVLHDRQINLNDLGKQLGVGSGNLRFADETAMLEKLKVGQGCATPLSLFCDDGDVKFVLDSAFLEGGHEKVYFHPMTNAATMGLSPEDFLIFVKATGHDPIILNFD
UniProt Q9D880: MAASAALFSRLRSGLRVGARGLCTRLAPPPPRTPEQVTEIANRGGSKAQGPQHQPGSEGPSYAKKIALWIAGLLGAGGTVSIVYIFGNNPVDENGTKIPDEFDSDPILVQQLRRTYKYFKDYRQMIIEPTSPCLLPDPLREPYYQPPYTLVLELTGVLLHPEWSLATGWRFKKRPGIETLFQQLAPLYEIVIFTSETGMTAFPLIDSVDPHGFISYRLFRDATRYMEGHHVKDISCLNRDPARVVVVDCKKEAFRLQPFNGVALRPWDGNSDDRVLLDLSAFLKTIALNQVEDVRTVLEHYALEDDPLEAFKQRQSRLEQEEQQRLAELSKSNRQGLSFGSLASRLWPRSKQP
UniProt Q9D1D4: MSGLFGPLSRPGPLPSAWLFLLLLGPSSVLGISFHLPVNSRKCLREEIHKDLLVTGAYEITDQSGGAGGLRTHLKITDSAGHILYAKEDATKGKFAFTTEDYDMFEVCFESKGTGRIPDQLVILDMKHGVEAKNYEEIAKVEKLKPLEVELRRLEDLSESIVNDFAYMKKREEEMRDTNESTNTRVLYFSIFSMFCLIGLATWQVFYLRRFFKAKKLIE
UniProt Q9D6J6, whole entry: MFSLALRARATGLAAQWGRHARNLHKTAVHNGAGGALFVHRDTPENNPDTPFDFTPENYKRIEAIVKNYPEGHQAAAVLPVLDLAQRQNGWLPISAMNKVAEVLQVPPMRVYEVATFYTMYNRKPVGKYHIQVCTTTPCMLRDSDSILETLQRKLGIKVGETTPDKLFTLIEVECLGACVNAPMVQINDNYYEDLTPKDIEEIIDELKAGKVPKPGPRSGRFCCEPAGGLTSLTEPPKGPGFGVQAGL
UniProt Q9DBG3: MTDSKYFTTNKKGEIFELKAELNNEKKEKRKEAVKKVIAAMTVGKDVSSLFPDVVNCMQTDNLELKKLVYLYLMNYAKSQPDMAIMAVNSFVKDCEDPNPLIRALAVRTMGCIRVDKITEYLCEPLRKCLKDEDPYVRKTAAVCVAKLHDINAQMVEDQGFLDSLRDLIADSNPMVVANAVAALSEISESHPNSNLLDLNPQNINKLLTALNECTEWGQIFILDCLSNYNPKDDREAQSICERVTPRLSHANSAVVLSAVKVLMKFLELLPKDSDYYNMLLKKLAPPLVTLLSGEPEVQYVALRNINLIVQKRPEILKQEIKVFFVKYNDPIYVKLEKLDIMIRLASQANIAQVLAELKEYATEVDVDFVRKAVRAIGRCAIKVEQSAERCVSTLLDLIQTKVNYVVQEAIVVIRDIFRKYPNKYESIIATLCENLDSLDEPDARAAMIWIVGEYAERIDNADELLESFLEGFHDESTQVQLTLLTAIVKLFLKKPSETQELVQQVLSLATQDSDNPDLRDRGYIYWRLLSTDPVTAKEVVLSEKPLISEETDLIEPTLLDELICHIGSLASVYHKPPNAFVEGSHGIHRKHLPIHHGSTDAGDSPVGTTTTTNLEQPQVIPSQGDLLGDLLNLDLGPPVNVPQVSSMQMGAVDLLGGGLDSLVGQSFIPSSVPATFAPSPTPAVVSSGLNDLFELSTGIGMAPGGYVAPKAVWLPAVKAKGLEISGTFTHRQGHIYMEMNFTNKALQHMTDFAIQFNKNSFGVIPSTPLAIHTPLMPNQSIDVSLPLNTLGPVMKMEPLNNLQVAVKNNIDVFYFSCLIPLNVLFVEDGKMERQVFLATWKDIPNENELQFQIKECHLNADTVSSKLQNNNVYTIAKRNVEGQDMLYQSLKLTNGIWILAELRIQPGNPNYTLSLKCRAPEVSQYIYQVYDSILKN
UniProt Q9DBR7: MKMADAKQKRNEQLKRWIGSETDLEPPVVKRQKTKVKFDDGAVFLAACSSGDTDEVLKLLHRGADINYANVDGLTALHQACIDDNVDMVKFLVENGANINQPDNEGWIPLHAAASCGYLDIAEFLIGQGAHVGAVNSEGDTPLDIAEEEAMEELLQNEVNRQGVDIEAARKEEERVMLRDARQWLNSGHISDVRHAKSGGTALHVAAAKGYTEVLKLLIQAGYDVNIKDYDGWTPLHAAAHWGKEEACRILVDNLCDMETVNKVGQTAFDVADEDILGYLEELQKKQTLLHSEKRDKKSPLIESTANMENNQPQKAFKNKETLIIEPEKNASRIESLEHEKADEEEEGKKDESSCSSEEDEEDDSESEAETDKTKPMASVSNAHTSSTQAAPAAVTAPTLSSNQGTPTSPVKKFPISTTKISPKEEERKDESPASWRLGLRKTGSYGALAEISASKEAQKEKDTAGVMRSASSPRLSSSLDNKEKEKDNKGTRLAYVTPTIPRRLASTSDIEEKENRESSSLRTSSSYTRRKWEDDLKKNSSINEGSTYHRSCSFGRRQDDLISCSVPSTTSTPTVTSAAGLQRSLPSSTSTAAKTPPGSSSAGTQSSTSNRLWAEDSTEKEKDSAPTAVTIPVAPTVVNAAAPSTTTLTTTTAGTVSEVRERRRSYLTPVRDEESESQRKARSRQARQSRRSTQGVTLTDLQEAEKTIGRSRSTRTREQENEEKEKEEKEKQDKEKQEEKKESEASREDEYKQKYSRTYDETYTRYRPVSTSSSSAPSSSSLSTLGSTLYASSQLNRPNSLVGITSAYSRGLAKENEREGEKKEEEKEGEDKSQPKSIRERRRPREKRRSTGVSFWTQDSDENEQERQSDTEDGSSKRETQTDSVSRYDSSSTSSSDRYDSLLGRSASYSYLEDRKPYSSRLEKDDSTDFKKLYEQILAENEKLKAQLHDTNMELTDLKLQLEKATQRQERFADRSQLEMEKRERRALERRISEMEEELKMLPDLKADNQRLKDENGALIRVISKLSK
UniProt Q9CYZ2: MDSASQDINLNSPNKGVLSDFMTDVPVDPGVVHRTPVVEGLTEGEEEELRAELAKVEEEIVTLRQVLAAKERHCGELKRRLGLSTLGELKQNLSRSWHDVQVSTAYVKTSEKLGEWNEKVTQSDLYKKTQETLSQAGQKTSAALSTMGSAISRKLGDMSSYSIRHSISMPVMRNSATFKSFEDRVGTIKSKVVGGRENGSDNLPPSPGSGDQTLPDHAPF

What follows are targets tested with CN[C@@H]1C[C@H]2O[C@@](C)([C@@H]1OC)n1c3ccccc3c3c4c(c5c6ccccc6n2c5c31)C(=O)NC4 [staurosporine] (assay: log2 fold change of pooled soluble protein (PISA), ligand vs vehicle (log2 ratio); higher = more thermally stabilized). Conditions: ligand concentration: 20 uM; assay format: PISA pool 52.9/55.5/58.6 C.

Target	log2 fold change of pooled soluble protein
UniProt Q9D338	0.108
UniProt Q9DB00	0.0149
UniProt Q9D1H6	0.0816
UniProt Q9D6W8	0.117
UniProt Q9D0R9	-0.0619
UniProt Q9D0D5	0.464
UniProt Q9CY27	0.116
UniProt Q9D1E6	-0.00903
UniProt Q9DBT9	0.0501
UniProt Q9D0N8	-0.0191
UniProt Q9D8Y0	0.0108
UniProt Q9D920	-0.0765
UniProt Q9D0M3	-0.224
UniProt Q9D824	-0.165
UniProt Q9D0B8	-0.0281
UniProt Q9D1R9	-0.11
UniProt Q9D0R2	0.0131
UniProt Q9CYU6	-0.417
UniProt Q9D892	-0.192

Given bar-delimited: entries from further up
Target | log2 fold change of pooled soluble protein
UniProt Q9DB00 | 0.0149
UniProt Q9D1H6 | 0.0816
UniProt Q9D6W8 | 0.117
UniProt Q9D0R9 | -0.0619
UniProt Q9D0M3 | -0.224
UniProt Q9D824 | -0.165
UniProt Q9D0B8 | -0.0281
UniProt Q9D0R2 | 0.0131
UniProt Q9CYU6 | -0.417
UniProt Q9D892 | -0.192

Further entries follow.

Target	log2 fold change of pooled soluble protein
UniProt Q9D0K1	-0.101
UniProt Q9DAU1	0.0223
UniProt Q9D820	-0.0378
UniProt Q9DC16	-0.0519
UniProt Q9D880	-0.0493
UniProt Q9D662	0.0103
UniProt Q9D1D4	-0.149
UniProt Q9DB77	0.0908
UniProt Q9D9K3	-0.0128
UniProt Q9D6N5	0.0525
UniProt Q9D8N0	-0.0927
UniProt Q9D6J6	0.096
UniProt Q9DBG3	0.121
UniProt Q9DBA6	-0.129
UniProt Q9D2R6	-0.0399
UniProt Q9DB43	-0.0244
UniProt Q9DBR7	-0.0786
UniProt Q9CYZ2	0.0465
